Reference: patent publication US7495088B1, “Modified nucleotide compounds” (Enzo Life Sciences, Inc., priority 1989, dated 2009)
No signal at the amounts used counts as a negative. Tags and fusion partners may be left off the protein sequences shown. The exact form of at least one protein or probe is not confirmed.

Target: T1, RNase H (Escherichia coli) (UniProt P0A7Y4)
T1 sequence (looked up, limits assumed): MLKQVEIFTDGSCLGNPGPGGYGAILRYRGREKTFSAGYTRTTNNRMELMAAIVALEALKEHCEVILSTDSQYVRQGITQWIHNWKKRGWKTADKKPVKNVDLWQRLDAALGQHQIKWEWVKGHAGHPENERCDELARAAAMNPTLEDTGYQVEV
Experiment: enzyme reaction in vitro
Details: purified recombinant protein, protein details: BRL, DNA:RNA hybrid

CTGGGGCTGCAT [12-Me5a-1 : ALA-D RNA hybrid]
activity on this sequence (3' methylphosphonate linkage at positions 3,4,7,9,11, most of RNA cleaved, label: 32P RNA, variant of 12-P-1 : ALA-D RNA hybrid): active

TGACTTAGCTGCAT [14-A-3 : ALA-D RNA hybrid]
activity on this sequence (3' methylphosphonate linkage at A3,A7,A13, RNase H substrate, cleavage incomplete, label: 32P RNA, variant of 14-P-3 : ALA-D RNA …): active

TGACTTAGCTGCAT [14-C-3 : ALA-D RNA hybrid]
activity on this sequence (3' methylphosphonate linkage at C4,C9,C12, RNase H substrate, cleavage incomplete, label: 32P RNA, variant of 14-P-3 : ALA-D RNA …): active

TGACTTAGCTGCAT [14-Me5a-3 : ALA-D RNA hybrid]
activity on this sequence (3' methylphosphonate linkage at positions 2,4,6,10,12, RNase H substrate, cleavage incomplete, label: 32P RNA, variant of 14-P-3 : ALA-D RNA …): active

TGACTTAGCTGCAT [14-Me5b-3 : ALA-D RNA hybrid]
activity on this sequence (3' methylphosphonate linkage at positions 2,4,6,8,13, RNase H substrate, cleavage incomplete, label: 32P …, variant of 14-P-3 : ALA-D RNA hybrid): active

TGACTTAGCTGCAT [14-Me6a-3 : ALA-D RNA hybrid]
activity on this sequence (3' methylphosphonate linkage at positions 2,4,6,8,10,12, not a substrate up to 10 ug/ml, label: 32P RNA, variant of 14-P-3 : ALA-D RNA hybrid): not active

TGGGGCTGCATG [12-Me4-1 : ALA-D RNA hybrid]
activity on this sequence (3' methylphosphonate linkage at positions 2,6,8,10, most of RNA cleaved, label: 32P RNA, variant of 12-P-1 : ALA-D RNA hybrid): active

TGGGGCTGCATG [12-Me5-1 : ALA-D RNA hybrid]
activity on this sequence (3' methylphosphonate linkage at positions 2,4,6,8,10, not an RNase H substrate, label: 32P RNA, variant of 12-P-1 : ALA-D RNA hybrid): not active

TGGGGCTGCATG [12-Me5b-1 : ALA-D RNA hybrid]
activity on this sequence (3' methylphosphonate linkage at positions 2,5,7,9,11, not an RNase H substrate, label: 32P RNA, variant of 12-P-1 : ALA-D RNA hybrid): not active

TGGGGCTGCATG [12-Me10-1 : ALA-D RNA hybrid]
activity on this sequence (3' methylphosphonate linkage at positions 2-11, not an RNase H substrate, label: 32P RNA, variant of 12-P-1 : ALA-D RNA hybrid): not active
